Consider 52 compounds from the supplement of paper PMC6331611.

± gives the standard deviation of the averaged measurements. The full ranking holds about 1,600 compounds; the median of “normalized growth (OD600, IQM-normalized) in LPM” is about 1, and the lowest 2% start at about 0.014. The list shows a part of the results.

For the assay, the system named is Salmonella enterica serovar Typhimurium SL1344. Put plainly: normalized growth (OD600, IQM-normalized) in LPM (fraction of plate interquartile mean); higher = more bacterial growth (less inhibition). To be noted: LPM pH 5.8; 10 µM; 16 h.
Compound `O=C(N/N=C/c1ccc([N+](=O)[O-])o1)c1cc([N+](=O)[O-])cc([N+](=O)[O-])c1O` came in with a normalized growth of 0.842 ± 0.44. The compound `COC(=O)C1=CCCN(C)C1` had a normalized growth of 1.01 ± 0.029.

`CC(C)(C)NCC(O)c1cc(Cl)c(N)c(Cl)c1` (configuration not stated) gave a normalized growth of 0.932 ± 0.085. On to `COc1cc2c(cc1OC)[C@@]13CCN4CC5=CCO[C@H]6CC(=O)N2[C@H]1[C@H]6[C@H]5C[C@H]43`, for which the normalized growth is 1.1 ± 0.037. Turning to `CNCC(=O)c1ccc(O)c(O)c1`, the normalized growth is 0.841 ± 0.04. `O=C(NC(=O)c1c(F)cccc1F)Nc1cc(Cl)c(OC(F)(F)C(F)C(F)(F)F)cc1Cl` (configuration not stated) yielded a normalized growth of 1.5 ± 0.3. The figure for `COc1ccc(CCN2CCC(Nc3nc4ccccc4n3Cc3ccc(F)cc3)CC2)cc1` is 1.09 ± 0.02; for `CC(=O)O[C@H]1C[C@H](O[C@H]2[C@@H](O)C[C@H](O[C@H]3[C@@H](O)C[C@H](O[C@H]4CC[C@@]5(C)[C@H](CC[C@@H]6[C@@H]5C[C@@H](O)[C@]5(C)[C@@H](C7=CC(=O)OC7)CC[C@]65O)C4)O[C@@H]3C)O[C@@H]2C)O[C@H](C)[C@H]1O[C@@H]1O[C@H](CO)[C@@H](O)[C@H](O)[C@H]1O` it is 1.04 ± 0.061; for `CC1(C)C(C=C(Cl)Cl)C1C(=O)OC(C#N)c1cccc(Oc2ccccc2)c1` (configuration not stated) it is 0.842 ± 0.034.

In turn, `Oc1cc(Cl)ccc1Oc1ccc(Cl)cc1Cl` returned a normalized growth of 0.00811 ± 0.00016. `C[C@]12CC[C@@H]3c4ccc(OC(=O)N(CCCl)CCCl)cc4CC[C@H]3[C@@H]1CC[C@@H]2O`: the normalized growth is 0.931 ± 0.019.

In turn, `COc1ccc(O)c(C(C)(C)C)c1.COc1ccc(O)cc1C(C)(C)C` returned a normalized growth of 1.06 ± 0.022.

With `O=[N+]([O-])c1cc([As](=O)(O)O)ccc1O`, the normalized growth worked out at 1.31 ± 0.031. `CCN1C[C@]2(COC)[C@H](O)C[C@H](OC)[C@@]34[C@@H]5C[C@@]6(O)[C@H](OC(=O)c7ccccc7)[C@@H]5[C@@](OC(C)=O)([C@@H]([C@H](OC)[C@H]23)[C@@H]14)[C@@H](O)[C@@H]6OC` showed a normalized growth of 1.05 ± 0.017.

As to `CC[C@@H](c1cccc(O)c1)[C@@H](C)CN(C)C`, the normalized growth was found to be 0.956 ± 0.047. Next, `CN(C)C(=O)Oc1cc(OC(=O)N(C)C)cc(C(O)CNC(C)(C)C)c1` (configuration not stated): 1 ± 0.045. `CCn1cc(C(=O)O)c(=O)c2cc3c(cc21)OCO3` gave a normalized growth of 0.00952 ± 0.00073. Take `C[N+]1(C)[C@@H]2C[C@@H](OC(=O)[C@H](CO)c3ccccc3)C[C@H]1[C@@H]1O[C@@H]12`: the normalized growth is 0.974 ± 0.03. The figure for `CCC1(c2ccc(N)cc2)CCC(=O)NC1=O` (configuration not stated) is 0.907 ± 0.025. Compound `CCN(C)C(=O)Oc1cccc([C@H](C)N(C)C)c1` showed a normalized growth of 1.03 ± 0.023. Next, `C[C@@H]1O[C@@H](O[C@H]2C[C@@H](O)[C@]3(CO)[C@H]4[C@H](O)C[C@]5(C)[C@@H](C6=CC(=O)OC6)CC[C@]5(O)[C@@H]4CC[C@]3(O)C2)[C@H](O)[C@H](O)[C@H]1O`: 0.985 ± 0.0052; `[N-]=[N+]=CC(=O)OC[C@H](N)C(=O)O`: 1.07 ± 0.025. In the case of `N=C1NC(=O)N2CC12` (configuration not stated), the normalized growth was 1.02 ± 0.037. For the compound `NC(=O)C[S+]([O-])C(c1ccccc1)c1ccccc1` (configuration not stated), the normalized growth came to 0.865 ± 0.082. For the compound `Clc1ccc(C(OCCN2CCCCC2)c2ccccc2)cc1` (configuration not stated), the normalized growth came to 1.05 ± 0.065.

In the case of `C[C@@H](CO)NC(=O)[C@@H]1C=C2c3cccc4[nH]cc(c34)C[C@H]2N(C)C1`, the normalized growth was 0.9722 ± 0.0039. In turn, `Cc1cccc(C)c1NC1=NCCCS1` showed a normalized growth of 0.961 ± 0.041. The compound `CC(=O)OCC1=C(C(=O)O)N2C(=O)[C@@H](NC(=O)CCC[C@@H](N)C(=O)O)[C@H]2SC1` returned a normalized growth of 1.01 ± 0.019. The compound `O=c1[nH]c(=O)n(Cl)c(=O)n1Cl` yielded a normalized growth of 0.986 ± 0.075. In the case of `NC(=O)CN1CCCC1=O`, the normalized growth came to 1.02 ± 0.036. Next, `O=P1(NCCCl)OCCCN1CCCl` (configuration not stated): 1.11 ± 0.053. Compound `Oc1ccc(Cl)cc1` gave a normalized growth of 0.971 ± 0.012. For `CC(C)c1c(CN(C)C(C)Cc2ccccc2)n(C)n(-c2ccccc2)c1=O` (configuration not stated), the normalized growth was 1.11 ± 0.0021. The figure for `OC[C@@H](O)[C@H]1O[C@@H]2O[C@H](C(Cl)(Cl)Cl)O[C@@H]2[C@H]1O` is 0.939 ± 0.057; for `C[N+]12CCC(CC1)C(OC(=O)C(O)(c1ccccc1)c1ccccc1)C2` (configuration not stated) it is 1.05 ± 0.026; for `CC(=O)[C@H]1CC[C@H]2[C@@H]3CC[C@@H]4C[C@H](O)CC[C@]4(C)[C@H]3CC[C@]12C` it is 1.11 ± 0.052. For `CC(CC(C(N)=O)(c1ccccc1)c1ccccc1)N(C)C` (configuration not stated), the normalized growth is 1.03 ± 0.026. Turning to `COC(=O)C(c1ccccc1)C1CCCCN1` (configuration not stated), the normalized growth is 0.96 ± 0.039.

For `CO[C@]12C[C@@H](COC(=O)c3cncc(Br)c3)CN(C)[C@@H]1Cc1cn(C)c3cccc2c13`, the normalized growth is 0.831 ± 0.059. The compound `CN(C)C(=S)SSC(=S)N(C)C` returned a normalized growth of 1.21 ± 0.05. `CC(C)C[C@H](CN)CC(=O)O` displayed a normalized growth of 0.979 ± 0.024. In turn, `CCC(C)(C)O` registered a normalized growth of 0.971 ± 0.064. In the case of `CC(C)(C)NCC(O)c1ccccc1Cl` (configuration not stated), the normalized growth was determined as 1.01 ± 0.061. The figure for `Cc1ccc(O)cc1.Cc1cccc(O)c1.Cc1ccccc1O` is 0.955 ± 0.19. As for `CCNC1(c2cccs2)CCCCC1=O` (configuration not stated), the normalized growth was determined as 1.01 ± 0.027. Turning to `C[C@@H]1CC[C@H]2[C@@H](C)C(=O)O[C@@H]3O[C@@]4(C)CC[C@@H]1[C@]32OO4`, the normalized growth was 0.621 ± 0.13. As for `CC[C@H]1[C@@H]2C[C@H]3[C@@H]4N(C)c5ccccc5[C@]45C[C@@H]([C@@H]2[C@H]5O)N3[C@@H]1O`, the normalized growth amounted to 1.48 ± 0.1. As to `CC[C@H]1CN2CCc3cc(OC)c(OC)cc3[C@@H]2C[C@@H]1C[C@H]1NCCc2cc(OC)c(OC)cc21`, the normalized growth worked out at 1.2 ± 0.1. In turn, `COc1cc([C@@H]2c3cc4c(cc3[C@H](O)[C@H]3COC(=O)[C@H]23)OCO4)cc(OC)c1OC` came in with a normalized growth of 0.966 ± 0.024. For `O=[N+]([O-])c1ccc([As](=O)(O)O)cc1`, the normalized growth was found to be 1.26 ± 0.023. `CCN(C(C)=O)c1cccc(-c2ccnc3c(C#N)cnn23)c1`: the normalized growth worked out at 1.12 ± 0.075. For `CC1(C)C(C=C(Cl)Cl)C1C(=O)OCc1cccc(Oc2ccccc2)c1` (configuration not stated), the normalized growth was determined as 0.813 ± 0.031.
